Some of the results follow. Shown are side measurements of this screen, not its main read-out; they come without a call. The list favours compounds with an active or inconclusive main result. Words in brackets tell the shape of the fitted curve; partial curves, single points and poor fits give uncertain potencies.
Assay: qHTS Assay for Lipid Storage Modulators in Drosophila S3 Cells;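 for cell number change: cells counted by Cell Tracker Red CMTPX staining in the red channel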
Conditions: BODIPY lipid droplet fluorescence, 18-24 h; for cell number change: measured here: cell count max response, cells fed with added oleic acid
Outline: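 Laser-scanning cytometry quantifies lipid droplet accumulation (500–530 nm total intensity; droplet/cell object ratio) in oleic acid-fed (400 uM added) Drosophila S3 cells treated with a concentration series. 20 uM Triacsin C defined 100% inhibition.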

[1] = measured here: cell number channel AC50, cells fed with added oleic acid
[2] = measured here: lipid fluorescence (Fed channel) AC50, cells fed with added oleic acid

Row | Compound | cell number change | AC50 [1] | AC50 [2]
1 | Cc1ccc(S(=O)(=O)n2nc(C)c(S(=O)(=O)N3CCOCC3)c2C)cc1 | 79% | 16.4 µM [rising, single point] | 25.9 µM [rising, partial curve, poor fit]
2 | OCCN=C(c1ccccc1)C12CN3CN(CN(C3)C1)C2 | -0.538% | – | 0.116 µM [falling, full curve]
3 | Cc1ccc(S(=O)(=O)N(CC(=O)Nc2cccnc2)c2cccc([N+](=O)[O-])c2)cc1 | -14% | – | 29.1 µM [falling, single point]
4 | Cc1cc(NS(=O)(=O)c2ccc(NC(=O)c3ccc([N+](=O)[O-])c(Cl)c3)cc2)no1 | 15.7% | – | 29.1 µM [rising, single point]
5 | COC(=O)Cc1ccc(NC(C)=O)cc1 | 6.79% | – | –
6 | COc1ccc(NC(=O)CSc2nc(O)cc(=O)n2-c2ccccc2)cc1 | 3.47% | – | 2.59 µM [rising, full curve]
7 | CCOC(=O)N1CCC(N(CCN(C)C)C(=S)Nc2cccc(Cl)c2C)CC1 | 17% | – | 0.517 µM [rising, full curve, poor fit]
8 | Nc1nc(Cl)nc2ccc(Br)cc12 | 21.5% | – | –
9 | CCOC(=O)C1(CCCc2ccccc2)CCN(S(C)(=O)=O)CC1 | 12.5% | – | 6.51 µM [falling, single point]
10 | CC1CCc2nc(NC(=O)Nc3ccc4c(c3)OCO4)sc2C1 (stereo not drawn) | -40.9% | 29.1 µM [falling, single point] | 18.4 µM [falling, partial curve, poor fit]
11 | CCOC(=O)c1ccc(NC(=O)Nc2ccn(C)n2)cc1 | 13.4% | – | 0.0058 µM [rising, full curve, poor fit]
12 | CCNC(=O)/C(C#N)=C/c1c(N2CCOCC2)nc2ccccn2c1=O | -12.7% | 6.51 µM [rising, single point] | 6.51 µM [rising, single point]
13 | O=C(CNCc1cccc2ccccc12)Nc1ccccc1[N+](=O)[O-] | 48.6% | 7.31 µM [rising, partial curve, poor fit] | –
14 | COc1ccccc1C(=O)N(C1=NC(C)CS1)c1ccc(Cl)cc1 (stereo not drawn) | 38.9% | 12.6 µM [rising, partial curve, poor fit] | –
15 | CCn1nc(C(=O)OCC(=O)NC(C)C)c2ccccc2c1=O | 0.906% | 0.00461 µM [rising, full curve, poor fit] | 0.00461 µM [rising, full curve, poor fit]
16 | COc1cccc(Cn2nnc(C(=O)NCc3ccc(F)cc3)c2N)c1 | 53.5% | 1.84 µM [rising, full curve] | 1.3 µM [rising, full curve]
17 | Cn1cc(Cl)c(C(=O)NC2CCCC2)n1 | -38.9% | 1.16 µM [falling, full curve] | –
18 | CCOc1ccc(S(=O)(=O)N(CC(=O)NCC2CCCO2)c2ccc(F)cc2)cc1 (stereo not drawn) | -12.6% | – | –
19 | CC(C)CNC(=S)NC1CCCC1 | -63.7% | 0.58 µM [falling, full curve] | 29.1 µM [falling, single point]
20 | CCOc1ccc(C(=O)N(c2ccccn2)C2CCCCC2)cc1 | -10.9% | – | 16.4 µM [falling, single point]

Row | Compound | cell number change | AC50 [1] | AC50 [2]
21 | O=C1CCC(=O)N1c1ccc(NCc2ccccc2Cl)c([N+](=O)[O-])c1 | 11% | – | 0.651 µM [falling, single point]
22 | O=C(CN1CCN(C(c2ccccc2)c2ccccc2)CC1)Nc1ccc(N2CCOCC2)cc1 | – | 5.17 µM [falling, single point] | 6.51 µM [falling, single point]
23 | Cc1ccc(S(=O)(=O)N(C)C)cc1NC(=O)COC(=O)Cc1ccccc1F | – | 3.66 µM [falling, single point] | –
24 | COC(=O)c1ccccc1NC(=O)C12CCC(C)(C(=O)O1)C2(C)C (stereo not drawn) | 15.1% | – | –
25 | O=C(Nc1ccc(Cl)c(Cl)c1)N(Cc1cccnc1)Cc1ccco1 | 3.65% | 6.51 µM [falling, single point] | 29.1 µM [falling, single point]
26 | O=C(Nc1cccnc1)Nc1ccc2c(c1)OCO2 | – | 0.517 µM [rising, full curve] | –
27 | COc1ccc(OC)c(CC(=O)NC(c2ccccc2)c2ccccc2)c1 | 7.62% | 0.058 µM [rising, full curve, poor fit] | –
28 | Cc1nc(Nc2cnc(/C=C/c3cc(C(=O)Nc4cccc(C(F)(F)F)c4)ccc3C)cn2)cc(N2CCNCC2)n1 | -22.5% | – | 29.1 µM [falling, single point]
29 | C=CCOc1ccc(CNC(C)(C)C)cc1OC | -7.35% | – | 2.31 µM [falling, partial curve]
30 | Cc1ccc(N2C(=O)[C@@H]3[C@H](C2=O)C2CCCN2[C@@H]3C(=O)c2ccccc2)cc1 (stereo partly drawn) | -31.2% | 29.1 µM [falling, single point] | –
31 | Cc1ccc(Nc2ncccc2C(N)=O)cc1 | – | – | 0.146 µM [rising, full curve, poor fit]
32 | CN(c1ccccc1)S(=O)(=O)c1cccc(C(=O)Nc2ccc3c(c2)CCC3)c1 | -0.704% | – | 0.291 µM [falling, partial curve, poor fit]
33 | CCC(C)(C)NC(=O)/C=C/c1cnc2ccccc2n1 | 3.51% | 3.26 µM [rising, partial curve] | 29.1 µM [rising, single point]
34 | O=C(NCCCc1ccccc1)c1ccc(-n2cncn2)c([N+](=O)[O-])c1 | – | – | 2.06 µM [falling, partial curve, poor fit]
35 | COc1ccc([C@H]2CC(=O)C=C(c3cc(Cl)ccc3OC)C2)cc1 | -5.37% | – | 1.16 µM [falling, single point]
36 | COc1ccccc1OCC(=O)Nc1ccc(O)cc1C(=O)O | 5.6% | – | 4.61 µM [falling, full curve]
37 | C/C(=N\NC(=O)c1ccco1)c1ccc(NC(=O)c2ccccc2)cc1 | 11.1% | – | –
38 | COc1cccc(CNc2cnc3ccccc3c2)c1O | -32.4% | 18.4 µM [falling, single point] | 23.1 µM [falling, single point]
39 | Cc1cccc(NC(=S)c2nc3ccccc3s2)c1 | 2.15% | – | 2.06 µM [rising, partial curve, poor fit]
40 | C[C@H]1CC[C@H]2C(=O)N[C@H](Cc3ccccc3)C(=O)N2[C@@H]1c1ccccc1 | -2.73% | – | 29.1 µM [falling, single point]

3 structures from above, sorted by number of heavy atoms, largest number first.
Row | Compound | cell number change | AC50 [1] | AC50 [2]
32 | CN(c1ccccc1)S(=O)(=O)c1cccc(C(=O)Nc2ccc3c(c2)CCC3)c1 | -0.704% | – | 0.291 µM [falling, partial curve, poor fit]
38 | COc1cccc(CNc2cnc3ccccc3c2)c1O | -32.4% | 18.4 µM [falling, single point] | 23.1 µM [falling, single point]
31 | Cc1ccc(Nc2ncccc2C(N)=O)cc1 | – | – | 0.146 µM [rising, full curve, poor fit]

Continued.

Row | Compound | cell number change | AC50 [1] | AC50 [2]
41 | CN(C)S(=O)(=O)c1ccc(C(=O)Nc2nnc(SCc3cccc4ccccc34)s2)cc1 | -7.12% | 3.66 µM [rising, single point] | 6.51 µM [rising, single point]
42 | Cc1ccc(C(=O)NCCC(=O)NCc2ccco2)cc1 | 32.1% | 0.103 µM [rising, full curve, poor fit] | 1.64 µM [rising, partial curve]
43 | Cc1cc(/C=C(\C#N)C(=O)O)c(C)n1CCC(C)C | -13.2% | – | 0.82 µM [falling, full curve, poor fit]
44 | Cc1cc(/C=N/NC(=O)c2ccccc2F)c(C)n1-c1ccccc1 | 14.2% | – | –
45 | COc1ccc(N(CC(=O)NCc2cccnc2)S(=O)(=O)c2ccc(C)c([N+](=O)[O-])c2)cc1 | – | 6.51 µM [rising, single point] | –
46 | CCOc1cc(C(=O)Nn2cnnc2)cc(OCC)c1OCC | 24.3% | – | –
47 | O=C(O)C1=C[C@H](c2ccc(F)cc2)C[C@H](OCc2ccc(CO)cc2)O1 | 40.6% | 6.51 µM [rising, partial curve, poor fit] | –
48 | COc1cc(C)ccc1OCCON1C(=O)CCC1=O | -36% | 18.4 µM [falling, single point] | 29.1 µM [falling, single point]
49 | C=C1CC2C(CCC3(C)C2CCC3(O)C(C)=O)C2(C)CCC(=O)C=C12 (stereo not drawn) | -4.05% | – | –
50 | Nn1cnc2scc(-c3ccco3)c2c1=O | 14.3% | – | –
51 | N#Cc1ccc(NC(=O)Cn2cnc(S(=O)(=O)N3CCOCC3)c2)cc1 | -19.4% | – | 29.1 µM [rising, single point]
52 | O=C(/C=C/c1ccc(Cl)cc1)N(c1ccccn1)C1CCCCC1 | -13.2% | – | 0.13 µM [falling, full curve, poor fit]
53 | Cc1ccc(C(=O)/C=C/c2ccc(F)cc2)o1 | -4.1% | – | 2.06 µM [rising, partial curve]
54 | CCN(CC)C(=O)C1CCCN(Cc2ccc3c(c2)OCO3)C1 (stereo not drawn) | 0.234% | – | 4.61 µM [rising, full curve]
55 | CCOC(=O)C1=NOC(CNc2ncc(C(F)(F)F)cc2Cl)C1 (stereo not drawn) | -14.8% | – | 20.6 µM [falling, partial curve]
56 | O=C(CCC(=O)N1CCCCC1)Nc1ccc(Cl)c(Cl)c1 | 24.2% | – | 29.1 µM [rising, single point]
57 | Cc1cccc(C(=O)Nc2cccc(NC(=O)c3ccccc3)c2)c1 | -15.7% | – | 3.26 µM [falling, single point]
58 | CC(=O)N1CCN(CC(=O)Nc2cc(S(=O)(=O)N3CCOCC3)ccc2C)CC1 | 12.9% | – | –
59 | O=C(O)CCCn1c(=O)c2cccn2c2ccc(F)cc21 | 32.4% | 0.651 µM [rising, full curve, poor fit] | 1.16 µM [rising, full curve]
60 | O=C(CSc1nnc(Cc2ccccc2)n1-c1cccc(Cl)c1)N1CCOCC1 | -85.1% | – | 0.82 µM [rising, full curve]
